Experimental data taken from paper PMC12359225.
These are yes or no findings as the source states them, for the method shown. In cells and extracts the contact can be indirect. Some results given as binding are weak or reduced against the parent protein; the word gives no strength. Blank lines part the entries; values can stand above or below the molecule they belong to.

Amino acid sequences for entries named in this document (tags omitted).
UniProt Q8CFH6: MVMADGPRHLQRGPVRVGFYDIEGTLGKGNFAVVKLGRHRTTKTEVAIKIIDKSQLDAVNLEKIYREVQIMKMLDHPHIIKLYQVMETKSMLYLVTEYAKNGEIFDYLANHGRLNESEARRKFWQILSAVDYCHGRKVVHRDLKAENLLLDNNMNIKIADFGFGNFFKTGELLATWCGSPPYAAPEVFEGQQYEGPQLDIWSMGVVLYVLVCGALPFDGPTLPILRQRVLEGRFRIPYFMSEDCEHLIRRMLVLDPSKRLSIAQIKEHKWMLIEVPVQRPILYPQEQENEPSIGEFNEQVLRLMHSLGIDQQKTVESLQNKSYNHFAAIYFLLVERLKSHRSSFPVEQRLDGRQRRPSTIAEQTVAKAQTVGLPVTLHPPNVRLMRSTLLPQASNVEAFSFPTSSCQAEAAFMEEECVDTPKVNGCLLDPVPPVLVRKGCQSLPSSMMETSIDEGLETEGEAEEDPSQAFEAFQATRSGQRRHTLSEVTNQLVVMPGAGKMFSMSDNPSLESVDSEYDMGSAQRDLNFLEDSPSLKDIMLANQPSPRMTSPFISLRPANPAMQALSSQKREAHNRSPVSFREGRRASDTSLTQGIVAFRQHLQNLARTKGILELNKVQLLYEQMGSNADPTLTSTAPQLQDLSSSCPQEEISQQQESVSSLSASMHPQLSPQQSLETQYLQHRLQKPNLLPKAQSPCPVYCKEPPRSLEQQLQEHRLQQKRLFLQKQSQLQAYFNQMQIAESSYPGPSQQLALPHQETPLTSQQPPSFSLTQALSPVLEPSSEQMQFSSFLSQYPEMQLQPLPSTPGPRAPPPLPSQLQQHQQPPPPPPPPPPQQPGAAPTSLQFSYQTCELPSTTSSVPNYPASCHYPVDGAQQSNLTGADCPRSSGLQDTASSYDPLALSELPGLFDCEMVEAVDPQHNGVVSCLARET
UniProt Q6P4S6: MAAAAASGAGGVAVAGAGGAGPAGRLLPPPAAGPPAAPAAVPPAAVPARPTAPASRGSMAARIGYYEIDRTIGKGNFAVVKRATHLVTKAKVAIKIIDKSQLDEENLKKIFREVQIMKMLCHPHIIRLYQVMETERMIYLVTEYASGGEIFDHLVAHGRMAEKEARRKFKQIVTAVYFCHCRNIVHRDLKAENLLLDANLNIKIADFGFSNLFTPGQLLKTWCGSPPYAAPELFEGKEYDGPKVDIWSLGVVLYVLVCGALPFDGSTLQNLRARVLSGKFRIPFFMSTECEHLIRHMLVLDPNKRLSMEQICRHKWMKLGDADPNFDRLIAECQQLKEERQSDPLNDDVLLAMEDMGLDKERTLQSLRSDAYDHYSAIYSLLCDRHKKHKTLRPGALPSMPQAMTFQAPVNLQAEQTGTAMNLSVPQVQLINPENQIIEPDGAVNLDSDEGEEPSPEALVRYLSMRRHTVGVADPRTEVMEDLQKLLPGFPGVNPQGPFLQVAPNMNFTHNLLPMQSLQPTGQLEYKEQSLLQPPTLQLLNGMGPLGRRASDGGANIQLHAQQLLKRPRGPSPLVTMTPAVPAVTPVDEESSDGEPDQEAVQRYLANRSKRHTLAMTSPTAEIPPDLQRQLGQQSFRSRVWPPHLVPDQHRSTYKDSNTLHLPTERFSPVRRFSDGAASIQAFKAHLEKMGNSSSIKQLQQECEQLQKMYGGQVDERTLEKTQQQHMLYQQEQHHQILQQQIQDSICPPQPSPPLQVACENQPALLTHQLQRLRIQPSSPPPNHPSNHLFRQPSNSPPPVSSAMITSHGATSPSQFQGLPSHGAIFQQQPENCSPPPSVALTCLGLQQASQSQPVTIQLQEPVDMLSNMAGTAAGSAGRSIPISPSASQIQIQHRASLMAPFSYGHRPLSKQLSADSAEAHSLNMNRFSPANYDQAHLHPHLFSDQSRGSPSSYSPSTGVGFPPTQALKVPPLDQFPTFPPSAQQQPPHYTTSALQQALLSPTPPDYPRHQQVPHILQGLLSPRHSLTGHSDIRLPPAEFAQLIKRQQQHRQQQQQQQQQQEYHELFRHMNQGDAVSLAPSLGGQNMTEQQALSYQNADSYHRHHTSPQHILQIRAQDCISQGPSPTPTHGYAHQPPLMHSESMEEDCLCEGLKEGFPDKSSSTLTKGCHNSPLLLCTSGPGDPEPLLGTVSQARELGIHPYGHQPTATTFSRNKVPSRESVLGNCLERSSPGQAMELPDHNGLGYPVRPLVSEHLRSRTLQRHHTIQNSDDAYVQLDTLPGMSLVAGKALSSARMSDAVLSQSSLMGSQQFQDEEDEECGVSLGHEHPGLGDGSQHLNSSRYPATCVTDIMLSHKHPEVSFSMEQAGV

How the values were obtained:
[1] = molecular target: T1, CREB-regulated transcriptional coactivator 2 (mouse (endogenous in primary calvarial osteoblasts)) (UniProt Q3U182); experiment: co-IP; as a1, the samples of cells treated with 10 nM PTH (1-34) for 15 min, in which the SIK-CRTC2 interaction is mostly lost
T1 sequence: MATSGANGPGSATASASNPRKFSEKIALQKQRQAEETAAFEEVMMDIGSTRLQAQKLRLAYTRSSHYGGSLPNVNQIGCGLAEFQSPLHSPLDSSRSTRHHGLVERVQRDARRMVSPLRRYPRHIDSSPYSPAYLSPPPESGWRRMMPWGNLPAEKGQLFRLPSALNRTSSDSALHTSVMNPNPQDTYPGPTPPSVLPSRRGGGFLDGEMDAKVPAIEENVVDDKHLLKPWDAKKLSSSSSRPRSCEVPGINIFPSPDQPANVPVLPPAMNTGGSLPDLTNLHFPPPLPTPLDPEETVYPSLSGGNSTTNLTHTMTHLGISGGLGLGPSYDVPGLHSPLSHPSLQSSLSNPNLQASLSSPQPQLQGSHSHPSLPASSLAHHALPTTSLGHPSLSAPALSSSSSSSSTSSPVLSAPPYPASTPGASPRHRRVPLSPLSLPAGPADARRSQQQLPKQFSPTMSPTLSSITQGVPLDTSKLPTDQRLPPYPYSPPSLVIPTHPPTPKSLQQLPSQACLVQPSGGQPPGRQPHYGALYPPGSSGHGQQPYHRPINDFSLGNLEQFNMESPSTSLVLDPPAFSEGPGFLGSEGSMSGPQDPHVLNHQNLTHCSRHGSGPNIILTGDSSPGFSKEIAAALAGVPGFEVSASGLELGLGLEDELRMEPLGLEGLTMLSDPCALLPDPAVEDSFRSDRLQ

[2] = molecular target: T1, CREB-regulated transcriptional coactivator 2 (mouse (endogenous in primary calvarial osteoblasts)); experiment: co-IP; endogenous proteins; lysates of mature primary mouse calvarial osteoblasts, basal or treated with 10 nM PTH (1-34) for 15 min; lysis buffer 0.5% Nonidet P-40, 50 mM Tris pH 8.0, 150 mM NaCl, 1 mM EDTA; antibody and protein AG-agarose overnight at 4 °C; immunoblot
[3] = molecular target: Salt-inducible kinase 2 (mouse (endogenous in primary calvarial osteoblasts)) (UniProt Q8CFH6); experiment: co-IP; as a1, the samples of cells treated with 10 nM PTH (1-34) for 15 min, in which the SIK-CRTC2 interaction is mostly lost
[4] = molecular target: Salt-inducible kinase 3 (mouse (endogenous in primary calvarial osteoblasts)) (UniProt Q6P4S6); experiment: as above
[5] = molecular target: Salt-inducible kinase 2 (mouse (endogenous in primary calvarial osteoblasts)) (UniProt Q8CFH6); experiment: co-IP; endogenous proteins; lysates of mature primary mouse calvarial osteoblasts, basal or treated with 10 nM PTH (1-34) for 15 min; lysis buffer 0.5% Nonidet P-40, 50 mM Tris pH 8.0, 150 mM NaCl, 1 mM EDTA; antibody and protein AG-agarose overnight at 4 °C; immunoblot
[6] = molecular target: Salt-inducible kinase 3 (mouse (endogenous in primary calvarial osteoblasts)) (UniProt Q6P4S6); experiment: as above

- binding [2]: binds
B2: protein phosphatase 5 (enzyme, UniProt Q60676 1-499)
chain: MAMAEGERTECAETPRDEPPADGTLKRAEELKTQANDYFKAKDYENAIKFYSQAIELNPGNAIYYGNRSLAYLRTECYGYALGDATRAIELDKKYIKGYYRRAASNMALGKFRAALRDYETVVKVKPNDKDAKMKYQECSKIVKQKAFERAIAGDEHRRSVVDSLDIESMTIEDEYSGPKLEDGKVTITFMKDLMQWYKDQKKLHRKCAYQILVQVKEVLCKLSTLVETTLKETEKITVCGDTHGQFYDLLNIFELNGLPSETNPYIFNGDFVDRGSFSVEVILTLFGFKLLYPDHFHLLRGNHETDNMNQIYGFEGEVKAKYTAQMYELFSEVFEWLPLAQCINGKVLIMHGGLFSEDGVTLDDIRKIERNRQPPDSGPMCDLLWSDPQPQNGRSVSKRGVSCQFGPDVTKAFLEENQLDYIIRSHEVKAEGYEVAHGGRCVTVFSAPNYCDQMGNKASYIHLQGSDLRPQFHQFTAVPHPNVKPMAYANTLLQLGMM

- binding [2]: binds
B3: protein phosphatase 4 (enzyme, UniProt P97470 1-307)
chain: MAEISDLDRQIEQLRRCELIKESEVKALCAKAREILVEESNVQRVDSPVTVCGDIHGQFYDLKELFRVGGDVPETNYLFMGDFVDRGFYSVETFLLLLALKVRYPDRITLIRGNHESRQITQVYGFYDECLRKYGSVTVWRYCTEIFDYLSLSAIIDGKIFCVHGGLSPSIQTLDQIRTIDRKQEVPHDGPMCDLLWSDPEDTTGWGVSPRGAGYLFGSDVVAQFNAANDIDMICRAHQLVMEGYKWHFNETVLTVWSAPNYCYRCGNVAAILELDEHLQKDFIIFEAAPQETRGIPSKKPVADYFL

The remaining lines, values behind:

Molecule: Salt-inducible kinase 2 (from UniProt Q8CFH6 1-931) (enzyme)
- binding [1]: binds weakly
- binding [2]: binds

B1: CREB-regulated transcriptional coactivator 2 (protein, UniProt Q3U182 1-692)
chain: MATSGANGPGSATASASNPRKFSEKIALQKQRQAEETAAFEEVMMDIGSTRLQAQKLRLAYTRSSHYGGSLPNVNQIGCGLAEFQSPLHSPLDSSRSTRHHGLVERVQRDARRMVSPLRRYPRHIDSSPYSPAYLSPPPESGWRRMMPWGNLPAEKGQLFRLPSALNRTSSDSALHTSVMNPNPQDTYPGPTPPSVLPSRRGGGFLDGEMDAKVPAIEENVVDDKHLLKPWDAKKLSSSSSRPRSCEVPGINIFPSPDQPANVPVLPPAMNTGGSLPDLTNLHFPPPLPTPLDPEETVYPSLSGGNSTTNLTHTMTHLGISGGLGLGPSYDVPGLHSPLSHPSLQSSLSNPNLQASLSSPQPQLQGSHSHPSLPASSLAHHALPTTSLGHPSLSAPALSSSSSSSSTSSPVLSAPPYPASTPGASPRHRRVPLSPLSLPAGPADARRSQQQLPKQFSPTMSPTLSSITQGVPLDTSKLPTDQRLPPYPYSPPSLVIPTHPPTPKSLQQLPSQACLVQPSGGQPPGRQPHYGALYPPGSSGHGQQPYHRPINDFSLGNLEQFNMESPSTSLVLDPPAFSEGPGFLGSEGSMSGPQDPHVLNHQNLTHCSRHGSGPNIILTGDSSPGFSKEIAAALAGVPGFEVSASGLELGLGLEDELRMEPLGLEGLTMLSDPCALLPDPAVEDSFRSDRLQ
- binding [3]: binds weakly
- binding [4]: binds weakly
- binding [5]: binds
- binding [6]: binds
